Laboratory results reported in paper PMC11633740, “Rapid prediction of acute thrombosis via nanoengineered immunosensors with unsupervised clustering for multiple circulating biomarkers”.
For at least one entry, the source does not settle the construct or the ends of the probe. At least one verdict rests on a figure or table, not on a statement of the authors. For some assays here: Where a protein sequence is shown, tags need not be part of it.

By UniProt entry, the sequences of proteins in these tests, tags left out. Residues count along the entry.
UniProt P16109, 42-771: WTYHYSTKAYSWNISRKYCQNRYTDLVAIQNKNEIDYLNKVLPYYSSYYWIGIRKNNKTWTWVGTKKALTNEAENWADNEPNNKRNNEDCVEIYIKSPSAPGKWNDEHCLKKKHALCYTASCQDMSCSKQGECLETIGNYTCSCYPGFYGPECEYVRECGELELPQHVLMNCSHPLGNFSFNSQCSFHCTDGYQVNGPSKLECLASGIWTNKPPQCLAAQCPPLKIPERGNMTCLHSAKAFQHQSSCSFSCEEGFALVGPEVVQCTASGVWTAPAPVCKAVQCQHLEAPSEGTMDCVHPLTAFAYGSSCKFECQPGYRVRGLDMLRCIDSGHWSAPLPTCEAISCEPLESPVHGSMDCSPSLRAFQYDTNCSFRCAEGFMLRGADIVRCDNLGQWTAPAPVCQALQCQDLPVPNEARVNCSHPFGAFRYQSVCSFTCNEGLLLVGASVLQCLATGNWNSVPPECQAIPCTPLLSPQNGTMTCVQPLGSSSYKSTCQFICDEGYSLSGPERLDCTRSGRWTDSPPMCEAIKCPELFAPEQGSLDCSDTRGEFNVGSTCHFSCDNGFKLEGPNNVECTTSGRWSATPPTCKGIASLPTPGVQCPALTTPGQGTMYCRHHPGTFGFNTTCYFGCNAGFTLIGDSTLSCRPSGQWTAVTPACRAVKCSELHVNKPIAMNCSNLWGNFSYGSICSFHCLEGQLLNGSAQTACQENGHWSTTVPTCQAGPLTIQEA

Experiments:
[1] = biological target: T1, C-reactive protein (CRP) (human) (UniProt P02741); assay: SPR; conditions: immobilized aptamer, no Kd given in text; thiol (position not given) for the electrode; SPR (Biacore 2000, SA chip): 10 mM Hepes, 150 mM NaCl, pH 7.4, 0.005% Tween 20, 25 C; commercial protein; single-stranded DNA
T1 sequence (looked up, limits assumed): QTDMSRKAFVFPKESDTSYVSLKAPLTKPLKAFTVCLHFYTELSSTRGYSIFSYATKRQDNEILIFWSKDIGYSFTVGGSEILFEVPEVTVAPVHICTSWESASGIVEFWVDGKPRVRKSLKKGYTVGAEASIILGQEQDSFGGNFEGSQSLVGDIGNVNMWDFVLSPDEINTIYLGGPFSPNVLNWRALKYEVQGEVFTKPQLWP

[2] = biological target: soluble P-selectin (sP-selectin) (human) (UniProt P16109); assay: SPR; conditions: immobilized aptamer, no Kd given in text; thiol (position not given) for the electrode; no 2' modification stated; SPR (Biacore 2000, SA chip): 10 mM Hepes, 150 mM NaCl, pH 7.4, 0.005% Tween 20, 25 C; commercial protein

Sequence | binding result [1] | binding result [2]
GCCTGTAAGGTGGTCGGTGTGGCGAGTGTGTTAGGAGAGATTGC [CRP aptamer] | binds | 
ACGCUCAACGAGCCAGGAACAUCGACGUCAGCAAACGCGAGCGCAACCAGUAACACC [sP-selectin aptamer] |  | binds
